Source: the supplement of paper PMC6078165
Values are relative to the signal before dosing, not to a vehicle control; the signal also falls without drug.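 Labels refer to human fibroblasts, largely primary: uterine (C12385, HUF), lung (H6013), bone (Hs27A), adrenal (HADF), skin (WS1), plus mammary HMF and breast cancer-associated Hs343T. Cancer lines are basal-like or mesenchymal-like triple-negative breast cancer. The paper counts as hits responses shifting over 3x the replicate standard deviation. The tissue of the other fibroblasts is not given here.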

System: MDAMB468
Assay: relative JC-1 red fluorescence (viability) vs pre-drug, coculture with fibroblast (fraction); higher = more viable cancer cells
Method: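 JC-1 labelled TNBC cells cocultured 1:1 (1,500 cells each) with CellTrace Violet stained primary or stromal fibroblasts in 384-well plates in FluoroBrite medium, treated with one of 42 anticancer drugs at 0.1, 1, 10 or 100 uM. JC-1 red fluorescence (mitochondrial integrity in cancer cells only) was read by plate reader every 8 h for 72 h. Values are normalised to each well's pre-drug value. The stock of one drug was tenfold lower, so its dose labels may be too high.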

CC(C)(C#N)c1cc(Cn2cncn2)cc(C(C)(C)C#N)c1 [Anastrozole]
relative JC-1 red fluorescence
Details | 8 h | 16 h | 24 h | 32 h | 40 h | 48 h | 56 h | 64 h | 72 h
10 µM, coculture fibroblast: C12385 | 0.8846 | 0.788 | 0.742 | 0.685 | 0.643 | 0.616 | 0.568 | 0.53 | 0.51
10 µM, coculture fibroblast: H6013 | 0.8756 | 0.862 | 0.833 | 0.821 | 0.813 | 0.824 | 0.811 | 0.799 | 0.755
10 µM, coculture fibroblast: H6019 | 0.803 | 0.789 | 0.7487 | 0.6824 | 0.642 | 0.6151 | 0.5652 | 0.532 | 0.505
10 µM, coculture fibroblast: H6076 | 0.933 | 0.859 | 0.89048 | 0.8473 | 0.7658 | 0.7388 | 0.692 | 0.667 | 0.6911
10 µM, coculture fibroblast: H6231 | 0.8337 | 0.953 | 0.836 | 0.822 | 0.762 | 0.741 | 0.685 | 0.654 | 0.638
10 µM, coculture fibroblast: HADF | 0.8953 | 0.826 | 0.775 | 0.755 | 0.69 | 0.682 | 0.63 | 0.615 | 0.578
10 µM, coculture fibroblast: HCFa | 0.8706 | 0.842 | 0.799 | 0.763 | 0.691 | 0.69 | 0.633 | 0.598 | 0.565
10 µM, coculture fibroblast: HCPF | 0.8787 | 0.9555 | 0.8989 | 0.875 | 0.8112 | 0.7808 | 0.7268 | 0.713 | 0.6849
10 µM, coculture fibroblast: HHSteC | 0.8953 | 0.8662 | 0.827 | 0.788 | 0.741 | 0.735 | 0.661 | 0.633 | 0.589
10 µM, coculture fibroblast: HMF | 0.842 | 0.871 | 0.919 | 0.873 | 0.811 | 0.778 | 0.714 | 0.692 | 0.661
10 µM, coculture fibroblast: HPFa | 0.913 | 0.852 | 0.794 | 0.739 | 0.687 | 0.676 | 0.605 | 0.571 | 0.502
10 µM, coculture fibroblast: HUF | 0.9196 | 0.842 | 0.7911 | 0.7246 | 0.6825 | 0.649 | 0.596 | 0.572 | 0.556
10 µM, coculture fibroblast: Hs5 | 0.865 | 0.98932 | 0.938 | 0.895 | 0.825 | 0.8 | 0.759 | 0.721 | 0.744
10 µM, coculture fibroblast: Hs27A | 0.8647 | 0.821 | 0.7853 | 0.778 | 0.72 | 0.72 | 0.678 | 0.651 | 0.6038
10 µM, coculture fibroblast: Hs343T | 0.8798 | 0.913 | 0.923 | 0.885 | 0.82 | 0.793 | 0.735 | 0.708 | 0.672
10 µM, coculture fibroblast: WS1 | 0.866 | 0.751 | 0.702 | 0.64 | 0.589 | 0.559 | 0.527 | 0.487 | 0.47
100 µM, coculture fibroblast: C12385 | 0.8742 | 0.8264 | 0.777 | 0.7236 | 0.671 | 0.653 | 0.606 | 0.574 | 0.547
100 µM, coculture fibroblast: H6013 | 0.89178 | 0.87 | 0.839 | 0.8468 | 0.825 | 0.834 | 0.8005 | 0.793 | 0.7339
100 µM, coculture fibroblast: H6019 | 0.871 | 0.8251 | 0.808 | 0.757 | 0.721 | 0.716 | 0.672 | 0.641 | 0.617
100 µM, coculture fibroblast: H6076 | 0.94 | 0.96713 | 0.939 | 0.946 | 0.869 | 0.873 | 0.852 | 0.846 | 0.916
100 µM, coculture fibroblast: H6231 | 0.82137 | 0.913 | 0.861 | 0.859 | 0.8197 | 0.79705 | 0.752 | 0.7347 | 0.723
100 µM, coculture fibroblast: HADF | 0.89298 | 0.82401 | 0.788 | 0.791 | 0.737 | 0.738 | 0.705 | 0.689 | 0.65
100 µM, coculture fibroblast: HCFa | 0.8732 | 0.866 | 0.81 | 0.808 | 0.73 | 0.733 | 0.678 | 0.642 | 0.595
100 µM, coculture fibroblast: HCPF | 0.8758 | 0.849 | 0.912 | 0.901 | 0.817 | 0.801 | 0.76 | 0.746 | 0.736
100 µM, coculture fibroblast: HHSteC | 0.9366 | 0.8731 | 0.8319 | 0.823 | 0.78 | 0.78 | 0.714 | 0.69 | 0.638
100 µM, coculture fibroblast: HMF | 0.881 | 0.9716 | 0.9181 | 0.893 | 0.8265 | 0.806 | 0.76 | 0.746 | 0.73
100 µM, coculture fibroblast: HPFa | 0.9449 | 0.9042 | 0.851 | 0.8131 | 0.7599 | 0.75 | 0.6665 | 0.642 | 0.5681
100 µM, coculture fibroblast: HUF | 0.933 | 0.86 | 0.806 | 0.74 | 0.69 | 0.647 | 0.605 | 0.566 | 0.53843
100 µM, coculture fibroblast: Hs5 | 0.786 | 0.962 | 0.909 | 0.8759 | 0.8169 | 0.7769 | 0.732 | 0.694 | 0.71
100 µM, coculture fibroblast: Hs27A | 0.85 | 0.804 | 0.7594 | 0.777 | 0.701 | 0.688 | 0.639 | 0.604 | 0.574
100 µM, coculture fibroblast: Hs343T | 0.905 | 0.99757 | 0.936 | 0.919 | 0.838 | 0.821 | 0.774 | 0.755 | 0.727
100 µM, coculture fibroblast: WS1 | 0.9044 | 0.842 | 0.8 | 0.728 | 0.691 | 0.656 | 0.624 | 0.596 | 0.576
